# Results taken from the supplement of paper PMC8728848.
# The list shows a part of the results.
# B1: PX14375A-pdi-503-28-503 (Parabacteroides distasonis) (protein)
# chain: PLGSPEAGDISEERQAFLRLTAVYSVMKDFRYTWSMQCFGDVLSNDATYSGSSNDAQTFTLLENYQYQADHTEILNKYRYSYQCINKANLFIRDMEMADDALFSKYDKEQMIGEAKFIRAYTYFELVKTFGGVPCYTGVLDLDHERLGRASVEEIYSVIEQDLNDAVSVLPKKSEVANYESSYAGRITKGAAIAMQTRIYLYEKKYDEVKKAFEKFQNECGGEYSLVAPEDYTWQFSLDGEHCSSSILEVNMYNSSTQSSYNVNNGNRHVLMSMPRNMTIGFGCAQPTQALADAYDAEGDVIRKKTTLLSTEEAIEIETAAKGDVAPVTDDRTGWYNRKLYLAPGQREENRGNNQPTNLRLIRLAEVYLNYAEACYFSGDIANAQKYLNEVRSHVNLAPKNHTGSQLFEDIMNERHLEFGMEGFRFFDVVRVGWGEKVFNGTKKAEFGAKTPFSAGAEVLPIPQTEIDISDGLITN
# How the values were obtained:
# Assay in all cases: glycan array binding signal (z-score within array); higher = stronger binding
# Details in all cases: glycan notation: IUPAC condensed, linker removed
# [1] = biological target: Neu5Ac(a2-3)Gal(b1-4)GlcNAc(b1-6)GalNAc
# Summary of the method: (§1)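 The binding signal is a Z-score computed within each array. Data were drawn from 3228 arrays in the Consortium for Functional Glycomics database, restricted to those with a known protein sequence. Scores were averaged over arrays of the same protein sequence at different concentrations or buffers, and over linkers, and negative values can be taken as non-binding.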
# [2] = biological target: Neu5Ac(a2-3)Gal(b1-4)GlcNAc(b1-6)[Gal(b1-3)]GalNAc
# Summary of the method: as §1
# [3] = biological target: Neu5Ac(a2-3)Gal(b1-4)GlcNAc(b1-6)[Neu5Ac(a2-3)Gal(b1-3)]GalNAc
# Summary of the method: as §1
# [4] = biological target: Neu5Ac(a2-3)Gal(b1-4)GlcNAc6S
# Summary of the method: as §1
# [5] = biological target: Neu5Ac(a2-3)Gal(b1-4)[Fuc(a1-3)]GlcNAc
# Summary of the method: as §1
# [6] = biological target: Neu5Ac(a2-3)Gal(b1-4)[Fuc(a1-3)]GlcNAc(b1-2)Man
# Summary of the method: as §1
# [7] = biological target: Neu5Ac(a2-3)Gal(b1-4)[Fuc(a1-3)]GlcNAc(b1-3)Gal
# Summary of the method: as §1
# [8] = biological target: Neu5Ac(a2-3)Gal(b1-4)[Fuc(a1-3)]GlcNAc(b1-3)Gal(b1-4)GlcNAc
# Summary of the method: as §1
# [9] = biological target: Neu5Ac(a2-3)Gal(b1-4)[Fuc(a1-3)]GlcNAc(b1-3)Gal(b1-4)[Fuc(a1-3)]GlcNAc(b1-3)Gal(b1-4)[Fuc(a1-3)]GlcNAc
# Summary of the method: as §1
# [10] = biological target: Neu5Ac(a2-3)Gal(b1-4)[Fuc(a1-3)]GlcNAc(b1-3)GalNAc
# Summary of the method: as §1
# [11] = biological target: Neu5Ac(a2-3)Gal(b1-4)[Fuc(a1-3)]GlcNAc(b1-6)[Gal(b1-3)]GalNAc
# Summary of the method: as §1
# [12] = biological target: Neu5Ac(a2-3)Gal(b1-4)[Fuc(a1-3)]GlcNAc(b1-6)[Neu5Ac(a2-3)Gal(b1-3)]GalNAc
# Summary of the method: as §1
# [13] = biological target: Neu5Ac(a2-3)Gal(b1-4)[Fuc(a1-3)]GlcNAc6S
# Summary of the method: as §1
# [14] = biological target: Neu5Ac(a2-3)Gal6S(b1-4)GlcNAc
# Summary of the method: as §1
# [15] = biological target: Neu5Ac(a2-3)Gal6S(b1-4)[Fuc(a1-3)]GlcNAc
# Summary of the method: as §1
# Neu5Ac(a2-3)GalNAc = biological target: Neu5Ac(a2-3)GalNAc
# Summary of the method: as §1
# [16] = biological target: Neu5Ac(a2-3)GalNAc(b1-4)GlcNAc
# Summary of the method: as §1
# [17] = biological target: Neu5Ac(a2-3)[GalNAc(b1-4)]Gal(b1-4)Glc
# Summary of the method: as §1
# [18] = biological target: Neu5Ac(a2-3)[GalNAc(b1-4)]Gal(b1-4)GlcNAc
# Summary of the method: as §1
# [19] = biological target: Neu5Ac(a2-3)[GalNAc(b1-4)]Gal(b1-4)GlcNAc(b1-3)GalNAc
# Summary of the method: as §1
# [20] = biological target: Neu5Ac(a2-3)[Neu5Ac(a2-6)]GalNAc
# Summary of the method: as §1
# Neu5Ac(a2-6)Gal = biological target: Neu5Ac(a2-6)Gal
# Summary of the method: as §1
# [21] = biological target: Neu5Ac(a2-6)Gal(b1-3)GlcNAc(b1-3)[Gal(b1-4)GlcNAc(b1-6)]Gal(b1-4)Glc
# Summary of the method: as §1
# Neu5Ac(a2-6)Gal(b1-4)Glc = biological target: Neu5Ac(a2-6)Gal(b1-4)Glc
# Summary of the method: as §1
# [22] = biological target: Neu5Ac(a2-6)Gal(b1-4)GlcNAc
# Summary of the method: as §1
# [23] = biological target: Neu5Ac(a2-6)Gal(b1-4)GlcNAc(b1-2)Man
# Summary of the method: as §1
# [24] = biological target: Neu5Ac(a2-6)Gal(b1-4)GlcNAc(b1-2)Man(a1-3)Man(b1-4)GlcNAc(b1-4)GlcNAc
# Summary of the method: as §1
# [25] = biological target: Neu5Ac(a2-6)Gal(b1-4)GlcNAc(b1-2)Man(a1-3)[Gal(b1-4)GlcNAc(b1-2)Man(a1-6)]Man(b1-4)GlcNAc(b1-4)GlcNAc
# Summary of the method: as §1
# [26] = biological target: Neu5Ac(a2-6)Gal(b1-4)GlcNAc(b1-2)Man(a1-3)[GlcNAc(b1-2)Man(a1-6)]Man(b1-4)GlcNAc(b1-4)GlcNAc
# Summary of the method: as §1
# [27] = biological target: Neu5Ac(a2-6)Gal(b1-4)GlcNAc(b1-2)Man(a1-3)[GlcNAc(b1-4)][Neu5Ac(a2-6)Gal(b1-4)GlcNAc(b1-2)Man(a1-6)]Man(b1-4)GlcNAc(b1-4)GlcNAc
# Summary of the method: as §1
# [28] = biological target: Neu5Ac(a2-6)Gal(b1-4)GlcNAc(b1-2)Man(a1-3)[Man(a1-6)]Man(b1-4)GlcNAc(b1-4)GlcNAc
# Summary of the method: as §1
# [29] = biological target: Neu5Ac(a2-6)Gal(b1-4)GlcNAc(b1-2)Man(a1-3)[Neu5Ac(a2-3)Gal(b1-4)GlcNAc(b1-2)Man(a1-6)]Man(b1-4)GlcNAc(b1-4)GlcNAc
# Summary of the method: as §1
# [30] = biological target: Neu5Ac(a2-6)Gal(b1-4)GlcNAc(b1-2)Man(a1-3)[Neu5Ac(a2-6)Gal(b1-4)GlcNAc(b1-2)Man(a1-6)]Man(b1-4)GlcNAc(b1-4)GlcNAc
# Summary of the method: as §1
# [31] = biological target: Neu5Ac(a2-6)Gal(b1-4)GlcNAc(b1-2)Man(a1-3)[Neu5Ac(a2-6)Gal(b1-4)GlcNAc(b1-2)Man(a1-6)]Man(b1-4)GlcNAc(b1-4)[Fuc(a1-6)]GlcNAc
# Summary of the method: as §1
# [32] = biological target: Neu5Ac(a2-6)Gal(b1-4)GlcNAc(b1-2)Man(a1-6)Man(b1-4)GlcNAc(b1-4)GlcNAc
# Summary of the method: as §1
# [33] = biological target: Neu5Ac(a2-6)Gal(b1-4)GlcNAc(b1-2)Man(a1-6)[Gal(b1-4)GlcNAc(b1-2)Man(a1-3)]Man(b1-4)GlcNAc(b1-4)GlcNAc
# Summary of the method: as §1
# [34] = biological target: Neu5Ac(a2-6)Gal(b1-4)GlcNAc(b1-2)Man(a1-6)[GlcNAc(b1-2)Man(a1-3)]Man(b1-4)GlcNAc(b1-4)GlcNAc
# Summary of the method: as §1
# [35] = biological target: Neu5Ac(a2-6)Gal(b1-4)GlcNAc(b1-2)Man(a1-6)[Man(a1-3)]Man(b1-4)GlcNAc(b1-4)GlcNAc
# Summary of the method: as §1
# [36] = biological target: Neu5Ac(a2-6)Gal(b1-4)GlcNAc(b1-2)[Neu5Ac(a2-6)Gal(b1-4)GlcNAc(b1-4)]Man(a1-3)[GlcNAc(b1-4)][Neu5Ac(a2-6)Gal(b1-4)GlcNAc(b1-2)[Neu5Ac(a2-6)Gal(b1-4)GlcNAc(b1-6)]Man(a1-6)]Man(b1-4)GlcNAc(b1-4)GlcNAc
# Summary of the method: as §1
# [37] = biological target: Neu5Ac(a2-6)Gal(b1-4)GlcNAc(b1-2)[Neu5Ac(a2-6)Gal(b1-4)GlcNAc(b1-4)]Man(a1-3)[GlcNAc(b1-4)][Neu5Ac(a2-6)Gal(b1-4)GlcNAc(b1-4)Man(a1-6)]Man(b1-4)GlcNAc(b1-4)GlcNAc
# Summary of the method: as §1
# [38] = biological target: Neu5Ac(a2-6)Gal(b1-4)GlcNAc(b1-2)[Neu5Ac(a2-6)Gal(b1-4)GlcNAc(b1-6)]Man(a1-6)[Neu5Ac(a2-6)Gal(b1-4)GlcNAc(b1-2)Man(a1-3)][GlcNAc(b1-4)]Man(b1-4)GlcNAc(b1-4)GlcNAc
# Summary of the method: as §1
# [39] = biological target: Neu5Ac(a2-6)Gal(b1-4)GlcNAc(b1-3)Gal(b1-3)GlcNAc
# Summary of the method: as §1
# [40] = biological target: Neu5Ac(a2-6)Gal(b1-4)GlcNAc(b1-3)Gal(b1-4)GlcNAc
# Summary of the method: as §1
# [41] = biological target: Neu5Ac(a2-6)Gal(b1-4)GlcNAc(b1-3)Gal(b1-4)GlcNAc(b1-2)Man(a1-3)[Neu5Ac(a2-6)Gal(b1-4)GlcNAc(b1-3)Gal(b1-4)GlcNAc(b1-2)Man(a1-6)]GalNAc
# Summary of the method: as §1
# [42] = biological target: Neu5Ac(a2-6)Gal(b1-4)GlcNAc(b1-3)Gal(b1-4)GlcNAc(b1-3)Gal(b1-4)GlcNAc
# Summary of the method: as §1
binder,measurement,setting,value
B1,glycan array binding signal (z-score),[1],-0.486
same,glycan array binding signal (z-score),[2],-0.492
same,glycan array binding signal (z-score),[3],-0.357
same,glycan array binding signal (z-score),[4],-0.628
same,glycan array binding signal (z-score),[5],-0.22
same,glycan array binding signal (z-score),[6],-0.567
same,glycan array binding signal (z-score),[7],-1
same,glycan array binding signal (z-score),[8],0.15
same,glycan array binding signal (z-score),[9],-0.254
same,glycan array binding signal (z-score),[10],0.723
same,glycan array binding signal (z-score),[11],-0.136
same,glycan array binding signal (z-score),[12],1.22
same,glycan array binding signal (z-score),[13],-0.805
same,glycan array binding signal (z-score),[14],-0.371
same,glycan array binding signal (z-score),[15],-0.444
same,glycan array binding signal (z-score),Neu5Ac(a2-3)GalNAc,-0.004
same,glycan array binding signal (z-score),[16],-0.35
same,glycan array binding signal (z-score),[17],-0.559
same,glycan array binding signal (z-score),[18],-0.748
same,glycan array binding signal (z-score),[19],-1.13
same,glycan array binding signal (z-score),[20],0.006
same,glycan array binding signal (z-score),Neu5Ac(a2-6)Gal,-0.64
same,glycan array binding signal (z-score),[21],-0.115
same,glycan array binding signal (z-score),Neu5Ac(a2-6)Gal(b1-4)Glc,-0.412
same,glycan array binding signal (z-score),[22],0.653
same,glycan array binding signal (z-score),[23],-0.429
same,glycan array binding signal (z-score),[24],-0.039
same,glycan array binding signal (z-score),[25],-0.384
same,glycan array binding signal (z-score),[26],0.971
same,glycan array binding signal (z-score),[27],-0.521
same,glycan array binding signal (z-score),[28],-0.114
same,glycan array binding signal (z-score),[29],-0.158
same,glycan array binding signal (z-score),[30],0.013
same,glycan array binding signal (z-score),[31],0.073
same,glycan array binding signal (z-score),[32],-0.882
same,glycan array binding signal (z-score),[33],-0.819
same,glycan array binding signal (z-score),[34],-0.508
same,glycan array binding signal (z-score),[35],-0.062
same,glycan array binding signal (z-score),[36],-0.373
same,glycan array binding signal (z-score),[37],0.454
same,glycan array binding signal (z-score),[38],0.656
same,glycan array binding signal (z-score),[39],-0.469
same,glycan array binding signal (z-score),[40],-0.106
same,glycan array binding signal (z-score),[41],0.642
same,glycan array binding signal (z-score),[42],0.319

# In a second layout: entries from further up.
binder	measurement	setting	value
B1	glycan array binding signal (z-score)	[35]	-0.062
same	glycan array binding signal (z-score)	[36]	-0.373
same	glycan array binding signal (z-score)	[37]	0.454
